Entries after “also recorded” stand apart in the source; their conditions may differ. At least one compound was matched to its structure with a doubt left.
What was measured:
uric acid [1] = test: Change in uric acid from baseline in subjects with overweight/obesity; format: in vivo, human; details: cohorts 1, 2 and 3, versus placebo, FIG. 2
uric acid [2] = test: Uric acid reduction in a hyperuricemic patient; format: in vivo, human
uric acid [3] = test: Change in uric acid from baseline in subjects with type 2 diabetes; format: in vivo, human; details: for Uric acid Mean of change: day 85 post-dose vs baseline
Description: FIG. 3 illustrates the change in uric acid from baseline after administration in subjects with diabetes.
In this study, the enrollment of 42 patients with type 2 diabetes with uncontrolled glycosylated hemoglobin despite at least 2 months of lifestyle intervention or treatment with a stable dose of metformin (≥1000 mg/day or the maximum tolerated dose). Three cohorts were included in this study: cohort 1 (n=14), cohort 2 (n=14), and cohort 3 (n=14). Subjects in each cohort were randomized in an 8:4:2 ratio into the mazdutide treatment group (n=8), the placebo group (n=4), and the dulaglutide 1.5 mg treatment group (n=2). In cohorts 1, 2, and 3, the active control drug, dulaglutide, was administered at 1.5 mg QW for 12 weeks, and the dosing regimens for mazdutide and placebo are described below:
Cohort 1: Subjects were administered with a starting dose of 1.0 mg once weekly for 4 weeks. If the treatment was well tolerated*, the dose was adjusted to 2.0 mg, and was administered once weekly for 4 weeks. If the treatment was well tolerated*, the dose was adjusted to 3.0 mg, and was administered once weekly for 4 weeks. (ascending at a rate of 1 mg/4 weeks to the target dose).
Cohort 2: Subjects were administered with a starting dose of 1.5 mg once weekly for 4 weeks.
If the treatment was well tolerated*, the dose was adjusted to 3.0 mg, and was administered once weekly for 4 weeks. If 3.0 mg was not well tolerated but still met the tolerance criteria, the next dose was investigated in cohort 2 (backup 1): if the dose was well tolerated, the study proceeded to 4.5 mg. The treatment was given once weekly for 4 weeks, if 4.5 mg was not well tolerated but still met the tolerance criteria, the next dose was investigated in cohort 2 (backup 2). (ascending at a rate of 1.5 mg/4 weeks to the target dose).
Cohort 3: Treatment in cohort 3 was started when the 4-week treatment at 1.5 mg was completed in the subjects in cohort 2: if 1.5 mg was not tolerated in cohort 2, 2.0 mg and higher doses were not investigated in cohort 3. In this cohort, subjects were administered with a starting dose of 2.0 mg once weekly for 4 weeks. If the treatment was well tolerated, the dose was adjusted to 4.0 mg, and was administered once weekly for 4 weeks. If the treatment was well tolerated, the dose was adjusted to 6.0 mg, and was administered once weekly for 4 weeks. (ascending at a rate of 2 mg/4 weeks to the target dose).
2. For subjects with diabetes: By Apr. 26, 2021, 42 subjects were enrolled and 36 were included in the analysis.

[4] = pI of the investigational product; format: physicochemical

CC(C)C[C@H](NC(=O)[C@H](CC(C)C)NC(=O)[C@H](Cc1c[nH]c2ccccc12)NC(=O)[C@H](CCC(=O)O)NC(=O)[C@@H](NC(=O)[C@H](Cc1ccccc1)NC(=O)[C@H](CCC(=O)O)NC(=O)[C@H](CCCCNC(=O)COCCOCCNC(=O)COCCOCCNC(=O)CC[C@H](NC(=O)CCCCCCCCCCCCCCCCCCC(=O)O)C(=O)O)NC(=O)[C@H](C)NC(=O)[C@H](CCCCN)NC(=O)[C@H](CCCCN)NC(=O)[C@H](CCC(=O)O)NC(=O)[C@H](CC(=O)O)NC(=O)[C@H](CC(C)C)NC(=O)[C@H](Cc1ccc(O)cc1)NC(=O)[C@H](CCCCN)NC(=O)[C@H](CO)NC(=O)[C@H](Cc1ccc(O)cc1)NC(=O)[C@H](CC(=O)O)NC(=O)[C@H](CO)NC(=O)[C@@H](NC(=O)[C@H](Cc1ccccc1)NC(=O)[C@@H](NC(=O)CNC(=O)[C@H](CCC(N)=O)NC(=O)C(C)(C)NC(=O)[C@@H](N)Cc1c[nH]cn1)[C@@H](C)O)[C@@H](C)O)C(C)C)C(=O)N[C@@H](CCC(=O)O)C(=O)NCC(=O)NCC(=O)N1CCC[C@H]1C(=O)N[C@@H](CO)C(=O)N[C@@H](CO)C(=O)NCC(N)=O [mazdutide]
change in uric acid from baseline (in words) (uric acid [1]): can reduce the uric acid level; also recorded: significant reductions in uric acid levels
reduction of the uric acid level (uric acid [2]): more than 80 μmol/L
Uric acid Mean of change (uric acid [3]; Cohort 1 (1.0-2.0-3.0 mg QW, 4 weeks each), N = 7): -38.14 µmol/L
Uric acid Mean of change (uric acid [3]; Cohort 2 (1.5-3.0-4.5 mg QW, 4 weeks each), N = 5): 0.52 µmol/L
Uric acid Mean of change (uric acid [3]; Cohort 3 (2.0-4.0-6.0 mg QW, 4 weeks each), N = 8): -32.50 µmol/L
change in uric acid from baseline (in words) (uric acid [3]; cohorts 1, 2 and 3, versus placebo and dulaglutide control, Table 6 and FIG. 3): can also decrease the uric acid level; also recorded: significantly reduced uric acid levels
pI [4]: 5.2
